According to PMC12906089:
No constants are given. Whether binding was seen depends on the method and setting. Binding seen in cells or lysates may run through a third protein. Some binding calls cover weakened binding; strength is not graded here. For part of these data: Tags and fused reporters may be left off the sequences shown.

Sequences of proteins named here, by UniProt entry; tags and fusion partners are left off.
UniProt P23771: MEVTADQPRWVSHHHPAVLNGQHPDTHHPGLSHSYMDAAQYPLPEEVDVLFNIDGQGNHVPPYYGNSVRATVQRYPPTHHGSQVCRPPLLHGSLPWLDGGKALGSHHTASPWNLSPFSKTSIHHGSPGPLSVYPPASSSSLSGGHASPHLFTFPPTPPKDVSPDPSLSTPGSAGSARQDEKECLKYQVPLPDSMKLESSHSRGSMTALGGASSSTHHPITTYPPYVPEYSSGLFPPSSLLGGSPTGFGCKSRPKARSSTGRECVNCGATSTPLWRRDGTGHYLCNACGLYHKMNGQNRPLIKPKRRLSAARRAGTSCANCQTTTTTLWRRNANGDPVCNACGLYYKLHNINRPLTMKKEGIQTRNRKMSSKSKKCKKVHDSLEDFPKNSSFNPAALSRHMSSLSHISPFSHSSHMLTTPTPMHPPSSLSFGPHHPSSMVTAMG
UniProt P27986: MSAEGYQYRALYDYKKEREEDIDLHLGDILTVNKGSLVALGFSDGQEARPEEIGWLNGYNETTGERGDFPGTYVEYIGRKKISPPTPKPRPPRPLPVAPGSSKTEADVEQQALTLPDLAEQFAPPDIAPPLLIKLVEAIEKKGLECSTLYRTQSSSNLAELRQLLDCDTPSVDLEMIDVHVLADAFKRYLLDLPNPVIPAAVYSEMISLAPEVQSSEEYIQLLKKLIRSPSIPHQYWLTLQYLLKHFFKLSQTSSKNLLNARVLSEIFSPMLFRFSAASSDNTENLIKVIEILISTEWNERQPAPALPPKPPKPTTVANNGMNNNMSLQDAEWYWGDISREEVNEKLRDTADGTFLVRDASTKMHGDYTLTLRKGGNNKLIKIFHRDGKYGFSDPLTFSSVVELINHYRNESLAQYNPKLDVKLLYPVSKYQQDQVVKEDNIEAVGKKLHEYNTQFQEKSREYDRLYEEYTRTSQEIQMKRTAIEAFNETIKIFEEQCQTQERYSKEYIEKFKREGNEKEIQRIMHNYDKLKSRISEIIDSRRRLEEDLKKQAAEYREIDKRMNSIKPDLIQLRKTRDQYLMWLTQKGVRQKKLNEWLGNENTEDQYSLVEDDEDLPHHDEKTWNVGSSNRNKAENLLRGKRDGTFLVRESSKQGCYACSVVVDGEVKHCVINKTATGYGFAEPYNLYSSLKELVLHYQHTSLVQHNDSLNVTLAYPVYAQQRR

T1: FLAG-tagged OSMR (Oncostatin M receptor) (UniProt Q99650)
T1 sequence: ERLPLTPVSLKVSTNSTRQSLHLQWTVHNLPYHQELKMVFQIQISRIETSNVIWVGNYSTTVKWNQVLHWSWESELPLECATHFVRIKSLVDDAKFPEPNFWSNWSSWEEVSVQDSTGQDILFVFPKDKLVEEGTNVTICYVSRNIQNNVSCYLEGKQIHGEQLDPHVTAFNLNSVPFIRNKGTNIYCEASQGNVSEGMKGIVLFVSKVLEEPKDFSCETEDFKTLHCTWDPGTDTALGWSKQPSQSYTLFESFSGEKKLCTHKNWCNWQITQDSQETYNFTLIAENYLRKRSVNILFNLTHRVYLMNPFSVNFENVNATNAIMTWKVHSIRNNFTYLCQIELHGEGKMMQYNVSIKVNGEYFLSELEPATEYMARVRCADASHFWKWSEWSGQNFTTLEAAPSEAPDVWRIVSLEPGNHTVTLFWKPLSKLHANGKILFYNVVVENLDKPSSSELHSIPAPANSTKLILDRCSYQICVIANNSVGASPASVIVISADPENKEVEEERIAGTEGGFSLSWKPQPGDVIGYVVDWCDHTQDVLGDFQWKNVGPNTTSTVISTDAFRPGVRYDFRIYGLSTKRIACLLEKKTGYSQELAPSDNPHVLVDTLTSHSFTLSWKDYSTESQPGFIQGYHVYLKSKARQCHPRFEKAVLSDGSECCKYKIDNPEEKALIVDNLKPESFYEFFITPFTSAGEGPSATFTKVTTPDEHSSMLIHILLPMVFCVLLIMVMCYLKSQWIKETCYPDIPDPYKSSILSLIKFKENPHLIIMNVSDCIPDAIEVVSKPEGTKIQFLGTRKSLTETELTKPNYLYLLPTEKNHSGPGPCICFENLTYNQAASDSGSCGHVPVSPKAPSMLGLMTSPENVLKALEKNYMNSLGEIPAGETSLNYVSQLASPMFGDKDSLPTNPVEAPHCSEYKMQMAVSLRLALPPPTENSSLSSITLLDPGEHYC

T2: OSMR (Oncostatin M receptor) of MKN28 cells, control group (human (endogenous in MKN28)) (UniProt Q99650)
T2 sequence: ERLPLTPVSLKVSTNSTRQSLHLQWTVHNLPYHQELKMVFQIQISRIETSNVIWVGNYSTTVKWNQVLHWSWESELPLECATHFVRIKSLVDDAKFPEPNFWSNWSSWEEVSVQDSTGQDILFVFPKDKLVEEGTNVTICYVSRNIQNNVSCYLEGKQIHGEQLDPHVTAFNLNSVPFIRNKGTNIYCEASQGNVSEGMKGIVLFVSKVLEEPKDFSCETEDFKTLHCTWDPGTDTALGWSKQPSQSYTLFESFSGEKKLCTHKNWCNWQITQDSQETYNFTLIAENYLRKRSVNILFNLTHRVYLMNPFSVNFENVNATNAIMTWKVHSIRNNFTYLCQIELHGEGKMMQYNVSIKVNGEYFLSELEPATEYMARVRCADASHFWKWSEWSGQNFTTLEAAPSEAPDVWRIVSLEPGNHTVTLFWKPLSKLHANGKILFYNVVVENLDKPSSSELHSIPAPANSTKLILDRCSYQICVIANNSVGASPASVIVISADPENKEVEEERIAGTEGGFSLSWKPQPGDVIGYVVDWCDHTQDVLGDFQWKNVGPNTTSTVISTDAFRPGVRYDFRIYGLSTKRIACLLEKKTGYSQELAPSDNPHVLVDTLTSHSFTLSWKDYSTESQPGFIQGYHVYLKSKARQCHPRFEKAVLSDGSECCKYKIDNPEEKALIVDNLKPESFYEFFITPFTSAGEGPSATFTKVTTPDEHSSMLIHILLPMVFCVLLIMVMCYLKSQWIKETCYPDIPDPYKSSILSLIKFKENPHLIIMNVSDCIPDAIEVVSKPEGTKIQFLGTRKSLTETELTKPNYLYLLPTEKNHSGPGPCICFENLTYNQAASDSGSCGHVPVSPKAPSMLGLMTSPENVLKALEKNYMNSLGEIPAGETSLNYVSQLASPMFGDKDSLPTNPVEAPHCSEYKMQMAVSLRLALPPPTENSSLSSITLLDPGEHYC


Experiments:
[1] = target: T1, FLAG-tagged OSMR (Oncostatin M receptor); assay: co-IP; AGS and MKN28 cells transfected with FLAG-tagged OSMR plasmid; RIPA lysate, 500 ug, pre-cleared with Protein A/G magnetic beads; overnight at 4°C with anti-OSMR antibody or isotype control IgG; western blot
[2] = target: T2, OSMR (Oncostatin M receptor) of MKN28 cells, control group (human (endogenous in MKN28)); assay: co-IP; MKN28 cells, control group (also siRNA knockdown of P85, and OSMR overexpression in P85-deficient cells); OSMR precipitated, P85 and P110 isoforms blotted
[3] = target: GATA3 (UniProt P23771); assay: co-IP; CO-IP of TRIM2 and GATA3 (Fig. 3K); cells and precipitating antibody not stated

Row | binding [1] | binding [2] | binding [3] | Molecule
1 | binds | binds | – | PI3K subunit (P85) (from UniProt P27986 1-724)
2 | – | – | binds | TRIM2 (enzyme, UniProt Q9C040 1-744) MASEGTNIPSPVVRQIDKQFLICSICLERYKNPKVLPCLHTFCERCLQNYIPAHSLTLSCPVCRQTSILPEKGVAALQNNFFITNLMDVLQRTPGSNAEESSILETVTAVAAGKPLSCPNHDGNVMEFYCQSCETAMCRECTEGEHAEHPTVPLKDVVEQHKASLQVQLDAVNKRLPEIDSALQFISEIIHQLTNQKASIVDDIHSTFDELQKTLNVRKSVLLMELEVNYGLKHKVLQSQLDTLLQGQESIKSCSNFTAQALNHGTETEVLLVKKQMSEKLNELADQDFPLHPRENDQLDFIVETEGLKKSIHNLGTILTTNAVASETVATGEGLRQTIIGQPMSVTITTKDKDGELCKTGNAYLTAELSTPDGSVADGEILDNKNGTYEFLYTVQKEGDFTLSLRLYDQHIRGSPFKLKVIRSADVSPTTEGVKRRVKSPGSGHVKQKAVKRPASMYSTGKRKENPIEDDLIFRVGTKGRNKGEFTNLQGVAASTNGKILIADSNNQCVQIFSNDGQFKSRFGIRGRSPGQLQRPTGVAVHPSGDIIIADYDNKWVSIFSSDGKFKTKIGSGKLMGPKGVSVDRNGHIIVVDNKACCVFIFQPNGKIVTRFGSRGNGDRQFAGPHFAAVNSNNEIIITDFHNHSVKVFNQEGEFMLKFGSNGEGNGQFNAPTGVAVDSNGNIIVADWGNSRIQVFDGSGSFLSYINTSADPLYGPQGLALTSDGHVVVADSGNHCFKVYRYLQ
